Assay results as given in article PMC11260468.
No constants are given. Whether binding was seen depends on the method and setting. Binding calls can cover weak binding; strength is not graded here.

By UniProt entry, the sequences of proteins in these tests, tags left out. Where a name states a change or a piece, a line headed by the entry shows the natural chain unless it says otherwise.
UniProt Q9LK61: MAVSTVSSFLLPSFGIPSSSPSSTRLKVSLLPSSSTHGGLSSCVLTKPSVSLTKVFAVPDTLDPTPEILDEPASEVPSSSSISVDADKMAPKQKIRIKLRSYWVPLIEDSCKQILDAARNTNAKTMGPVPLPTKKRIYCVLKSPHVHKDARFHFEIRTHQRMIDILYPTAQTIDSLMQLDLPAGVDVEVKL
UniProt Q8W4I6: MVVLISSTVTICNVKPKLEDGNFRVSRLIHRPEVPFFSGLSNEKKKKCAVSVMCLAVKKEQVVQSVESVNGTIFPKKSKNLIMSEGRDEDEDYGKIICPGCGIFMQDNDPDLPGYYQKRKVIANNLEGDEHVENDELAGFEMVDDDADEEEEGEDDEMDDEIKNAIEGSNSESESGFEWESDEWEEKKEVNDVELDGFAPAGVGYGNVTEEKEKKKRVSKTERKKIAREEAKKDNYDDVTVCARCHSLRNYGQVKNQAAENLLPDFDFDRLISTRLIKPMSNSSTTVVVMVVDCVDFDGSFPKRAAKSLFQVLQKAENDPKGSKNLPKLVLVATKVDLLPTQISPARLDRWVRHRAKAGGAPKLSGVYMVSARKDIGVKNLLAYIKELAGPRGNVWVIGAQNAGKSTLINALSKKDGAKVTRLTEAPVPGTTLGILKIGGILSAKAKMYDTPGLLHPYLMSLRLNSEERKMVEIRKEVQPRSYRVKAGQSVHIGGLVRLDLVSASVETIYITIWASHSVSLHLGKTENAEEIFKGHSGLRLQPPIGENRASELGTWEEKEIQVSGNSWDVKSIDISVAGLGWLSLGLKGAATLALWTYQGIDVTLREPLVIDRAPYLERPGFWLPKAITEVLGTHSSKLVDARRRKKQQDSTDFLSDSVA

Target: His-uS10c recombinant protein (Arabidopsis) (UniProt Q9LK61)
Experiment: pull-down; purified GST-BPG2 and His-uS10c mixed in 1X PBS, 23°C 60 min; captured on Ni-NTA magnetic beads 40 min at 4°C; ten washes (25 mM Tris-HCl pH 7.5, 2 mM EDTA, 100 mM NaCl); immunoblot; both purified

GST-BPG2 fusion protein (from UniProt Q8W4I6)
binding: binds
